These are yes or no findings as the source states them, for the method shown. Some entries that bind do so weakly or less than the wild type.
Target: FLAG-tagged ACE-2 target (human) (UniProt Q9BYF1)
Experiment: phage ELISA on FLAG-ACE-2

By UniProt entry, the sequences of proteins in these tests, tags left out. Residues count along the entry.
UniProt Q9BYF1, residues 18-740: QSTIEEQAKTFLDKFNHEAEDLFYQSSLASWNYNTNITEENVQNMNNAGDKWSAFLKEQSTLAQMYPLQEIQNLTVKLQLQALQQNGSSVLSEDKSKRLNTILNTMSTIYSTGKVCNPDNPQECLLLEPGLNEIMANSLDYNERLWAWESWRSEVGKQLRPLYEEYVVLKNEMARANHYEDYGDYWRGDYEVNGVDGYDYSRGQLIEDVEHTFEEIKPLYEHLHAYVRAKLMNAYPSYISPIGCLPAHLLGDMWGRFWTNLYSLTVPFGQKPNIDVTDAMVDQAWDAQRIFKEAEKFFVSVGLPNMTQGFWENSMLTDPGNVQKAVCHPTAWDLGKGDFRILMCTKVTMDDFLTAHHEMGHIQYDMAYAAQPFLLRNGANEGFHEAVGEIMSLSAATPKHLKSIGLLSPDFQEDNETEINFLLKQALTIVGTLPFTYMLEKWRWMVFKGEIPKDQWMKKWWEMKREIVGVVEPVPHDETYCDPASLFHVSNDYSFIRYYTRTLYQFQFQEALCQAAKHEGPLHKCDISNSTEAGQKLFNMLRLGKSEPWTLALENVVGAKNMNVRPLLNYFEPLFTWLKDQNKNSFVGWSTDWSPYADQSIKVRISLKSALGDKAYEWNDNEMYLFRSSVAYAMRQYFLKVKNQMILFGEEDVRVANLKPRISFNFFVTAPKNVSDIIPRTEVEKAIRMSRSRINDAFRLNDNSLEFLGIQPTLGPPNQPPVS

binding | Binder
binds | GFTCSPIRMFPWFRCDLG [ACE-2 binding polypeptide …]
binds | PQFCFEWEPCF [ACE-2 binding polypeptide …--]
binds | DDMCRWYPFASFYMCLF [ACE-2 binding polypeptide …-]

Reference: patent US20030138894A1
